# Test results as given in patent publication US7732666B1, “O-methyltransferase gene from sorghum cloning, expression, transformation and characterization” (priority 2006, dated 2010).
# Assay: Sorgoleone content determination by HPLC of root exudates
# Design: species or system Sorghum bicolor
# Settings: BTx623 seedlings
structure (smiles),measurement,value
"C=CC/C=C\C/C=C\CCCCCCCC1=C(O)C(=O)C=C(OC)C1=O [sorgoleone, 2-hydroxy-5-methoxy-3-[(Z,Z)-8′,11′,14′-pentadecatriene]-p-benzoquinone]",share of the exudate material,41 %-w/w
